# From the supplement of paper PMC12819154, “High-throughput peptide-centric local stability assay extends protein–ligand identification to membrane proteins, tissues and bacteria” (Nature Structural & Molecular Biology, 2025)
# The chains behind the UniProt entries cited, without tags or fusion partners. Where a name states a change or a piece, a line headed by the entry shows the natural chain unless it says otherwise.
# UniProt P75975: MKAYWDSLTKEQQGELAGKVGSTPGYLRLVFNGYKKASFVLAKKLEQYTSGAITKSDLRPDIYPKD
# UniProt P76575: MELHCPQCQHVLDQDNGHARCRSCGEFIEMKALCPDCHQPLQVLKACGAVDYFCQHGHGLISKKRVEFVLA
# UniProt P76076: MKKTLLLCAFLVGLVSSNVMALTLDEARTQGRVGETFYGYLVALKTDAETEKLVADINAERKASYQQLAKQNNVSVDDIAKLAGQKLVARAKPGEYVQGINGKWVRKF
# UniProt P75811: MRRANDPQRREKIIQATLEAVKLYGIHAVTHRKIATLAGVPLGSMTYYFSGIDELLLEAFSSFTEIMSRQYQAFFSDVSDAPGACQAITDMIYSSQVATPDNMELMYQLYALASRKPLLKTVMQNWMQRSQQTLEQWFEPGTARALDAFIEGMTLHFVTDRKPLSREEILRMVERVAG
# UniProt P75989: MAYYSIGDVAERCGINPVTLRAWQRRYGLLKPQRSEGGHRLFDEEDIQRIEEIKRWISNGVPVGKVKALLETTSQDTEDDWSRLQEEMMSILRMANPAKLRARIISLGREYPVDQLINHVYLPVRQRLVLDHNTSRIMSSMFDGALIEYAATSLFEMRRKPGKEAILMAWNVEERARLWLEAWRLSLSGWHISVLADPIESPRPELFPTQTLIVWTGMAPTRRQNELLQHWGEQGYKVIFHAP
# UniProt P77212: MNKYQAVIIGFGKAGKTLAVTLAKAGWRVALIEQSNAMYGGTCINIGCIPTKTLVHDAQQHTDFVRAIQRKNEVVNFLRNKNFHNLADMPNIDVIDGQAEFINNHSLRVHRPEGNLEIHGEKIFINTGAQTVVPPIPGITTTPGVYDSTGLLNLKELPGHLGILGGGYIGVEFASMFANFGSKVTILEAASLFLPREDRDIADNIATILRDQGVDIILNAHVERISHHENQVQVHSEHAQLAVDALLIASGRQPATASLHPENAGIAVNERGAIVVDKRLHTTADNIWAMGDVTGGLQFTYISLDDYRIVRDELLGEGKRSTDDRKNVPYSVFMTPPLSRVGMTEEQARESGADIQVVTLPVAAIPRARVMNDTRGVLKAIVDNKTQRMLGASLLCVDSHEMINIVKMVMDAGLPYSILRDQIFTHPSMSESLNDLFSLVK
# UniProt P76062: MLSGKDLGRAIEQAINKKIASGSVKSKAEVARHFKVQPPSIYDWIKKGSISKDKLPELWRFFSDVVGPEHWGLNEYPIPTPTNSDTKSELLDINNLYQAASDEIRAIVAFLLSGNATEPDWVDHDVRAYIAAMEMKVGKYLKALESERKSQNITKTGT
# UniProt P76172: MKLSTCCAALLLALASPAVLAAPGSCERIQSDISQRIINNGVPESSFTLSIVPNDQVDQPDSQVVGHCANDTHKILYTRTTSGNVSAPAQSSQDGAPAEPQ
# UniProt P76104: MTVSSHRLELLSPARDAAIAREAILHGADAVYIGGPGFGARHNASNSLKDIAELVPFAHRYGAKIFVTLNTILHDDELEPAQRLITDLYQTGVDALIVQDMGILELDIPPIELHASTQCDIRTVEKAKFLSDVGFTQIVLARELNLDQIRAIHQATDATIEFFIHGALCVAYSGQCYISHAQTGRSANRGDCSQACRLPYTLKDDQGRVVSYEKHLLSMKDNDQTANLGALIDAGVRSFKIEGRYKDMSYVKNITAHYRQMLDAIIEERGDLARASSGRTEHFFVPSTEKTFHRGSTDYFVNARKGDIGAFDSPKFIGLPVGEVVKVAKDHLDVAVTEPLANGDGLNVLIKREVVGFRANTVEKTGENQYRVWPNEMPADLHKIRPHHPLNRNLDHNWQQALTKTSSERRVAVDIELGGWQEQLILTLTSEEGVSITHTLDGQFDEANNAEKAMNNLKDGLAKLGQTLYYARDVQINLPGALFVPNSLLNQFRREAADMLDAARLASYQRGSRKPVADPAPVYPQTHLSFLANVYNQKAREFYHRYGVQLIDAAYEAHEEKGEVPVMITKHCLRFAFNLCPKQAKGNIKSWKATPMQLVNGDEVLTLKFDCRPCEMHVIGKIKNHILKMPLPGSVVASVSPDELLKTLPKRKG
# UniProt P76339: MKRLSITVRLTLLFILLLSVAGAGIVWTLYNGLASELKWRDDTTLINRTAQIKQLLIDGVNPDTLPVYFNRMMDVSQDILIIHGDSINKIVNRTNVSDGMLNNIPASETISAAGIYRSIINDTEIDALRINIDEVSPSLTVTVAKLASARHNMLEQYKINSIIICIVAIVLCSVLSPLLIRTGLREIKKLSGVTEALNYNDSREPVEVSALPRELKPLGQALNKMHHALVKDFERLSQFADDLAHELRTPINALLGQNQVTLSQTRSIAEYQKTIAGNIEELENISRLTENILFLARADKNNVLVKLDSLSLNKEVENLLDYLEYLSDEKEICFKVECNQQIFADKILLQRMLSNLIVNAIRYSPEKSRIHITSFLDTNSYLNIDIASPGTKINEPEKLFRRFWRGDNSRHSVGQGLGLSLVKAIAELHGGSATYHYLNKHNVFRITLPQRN
# UniProt P76114, whole entry: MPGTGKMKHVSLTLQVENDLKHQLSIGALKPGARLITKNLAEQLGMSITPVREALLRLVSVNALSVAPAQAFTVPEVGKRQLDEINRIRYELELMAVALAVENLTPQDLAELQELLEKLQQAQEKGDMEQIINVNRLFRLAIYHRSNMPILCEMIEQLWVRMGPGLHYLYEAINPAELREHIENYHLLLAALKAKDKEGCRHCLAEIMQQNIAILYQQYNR
# UniProt P76117: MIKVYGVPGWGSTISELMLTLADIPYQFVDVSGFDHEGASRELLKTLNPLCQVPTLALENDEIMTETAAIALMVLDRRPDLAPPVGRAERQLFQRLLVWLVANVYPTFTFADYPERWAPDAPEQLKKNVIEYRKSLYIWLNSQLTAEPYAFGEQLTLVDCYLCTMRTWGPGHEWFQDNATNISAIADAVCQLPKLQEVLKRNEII
# UniProt P76394: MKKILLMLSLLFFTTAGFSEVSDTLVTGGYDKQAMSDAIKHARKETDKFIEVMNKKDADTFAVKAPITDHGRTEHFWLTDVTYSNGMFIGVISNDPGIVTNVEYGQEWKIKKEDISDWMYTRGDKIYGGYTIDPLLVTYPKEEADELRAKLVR
# UniProt P76573: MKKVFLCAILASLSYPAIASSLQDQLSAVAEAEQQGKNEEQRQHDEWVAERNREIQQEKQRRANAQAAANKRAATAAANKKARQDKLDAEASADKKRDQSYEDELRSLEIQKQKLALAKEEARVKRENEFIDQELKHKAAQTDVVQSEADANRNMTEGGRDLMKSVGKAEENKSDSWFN
# UniProt P76052: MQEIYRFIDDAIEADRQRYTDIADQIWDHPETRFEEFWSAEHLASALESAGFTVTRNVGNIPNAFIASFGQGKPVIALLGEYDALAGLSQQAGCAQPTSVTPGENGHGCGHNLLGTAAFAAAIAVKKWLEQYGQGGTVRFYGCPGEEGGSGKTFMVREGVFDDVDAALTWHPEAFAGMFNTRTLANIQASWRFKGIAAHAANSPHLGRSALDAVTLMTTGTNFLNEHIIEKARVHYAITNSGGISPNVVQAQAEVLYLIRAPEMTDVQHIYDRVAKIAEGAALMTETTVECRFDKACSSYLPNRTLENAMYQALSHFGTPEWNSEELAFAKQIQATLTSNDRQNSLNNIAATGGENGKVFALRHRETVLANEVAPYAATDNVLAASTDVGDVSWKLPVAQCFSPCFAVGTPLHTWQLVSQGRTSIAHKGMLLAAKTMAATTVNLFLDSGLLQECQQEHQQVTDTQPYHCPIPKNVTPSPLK
# UniProt P76182: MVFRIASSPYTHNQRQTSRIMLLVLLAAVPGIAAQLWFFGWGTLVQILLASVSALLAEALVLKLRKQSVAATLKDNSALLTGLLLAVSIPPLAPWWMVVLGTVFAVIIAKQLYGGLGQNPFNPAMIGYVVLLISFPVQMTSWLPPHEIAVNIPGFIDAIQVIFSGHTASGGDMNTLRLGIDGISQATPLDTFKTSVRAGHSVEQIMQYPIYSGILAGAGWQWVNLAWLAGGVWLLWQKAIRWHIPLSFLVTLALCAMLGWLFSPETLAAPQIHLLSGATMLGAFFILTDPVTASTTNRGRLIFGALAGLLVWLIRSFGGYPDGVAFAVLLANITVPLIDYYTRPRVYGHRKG
# UniProt P76389: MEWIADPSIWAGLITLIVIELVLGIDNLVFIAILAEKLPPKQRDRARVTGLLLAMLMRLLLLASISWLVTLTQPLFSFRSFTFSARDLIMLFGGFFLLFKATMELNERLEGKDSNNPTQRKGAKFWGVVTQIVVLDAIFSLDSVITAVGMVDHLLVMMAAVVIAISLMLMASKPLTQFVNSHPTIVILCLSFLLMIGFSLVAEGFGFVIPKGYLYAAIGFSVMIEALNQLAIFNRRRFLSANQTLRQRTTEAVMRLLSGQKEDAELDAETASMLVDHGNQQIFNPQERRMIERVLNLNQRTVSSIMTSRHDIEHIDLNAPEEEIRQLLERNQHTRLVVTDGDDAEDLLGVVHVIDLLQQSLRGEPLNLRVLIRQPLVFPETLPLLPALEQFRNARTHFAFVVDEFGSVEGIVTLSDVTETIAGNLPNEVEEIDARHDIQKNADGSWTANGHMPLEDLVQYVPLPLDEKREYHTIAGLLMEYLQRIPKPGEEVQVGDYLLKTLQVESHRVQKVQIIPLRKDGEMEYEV
# UniProt P76112: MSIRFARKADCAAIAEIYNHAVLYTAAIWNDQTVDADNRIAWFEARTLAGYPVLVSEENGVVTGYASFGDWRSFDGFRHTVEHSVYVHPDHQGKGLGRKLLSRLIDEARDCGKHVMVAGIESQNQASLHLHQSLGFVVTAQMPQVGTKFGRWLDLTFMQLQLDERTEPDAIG
# UniProt P76231: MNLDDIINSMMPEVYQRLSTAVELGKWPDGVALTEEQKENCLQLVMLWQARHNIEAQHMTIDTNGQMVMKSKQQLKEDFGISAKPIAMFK
# UniProt P76113: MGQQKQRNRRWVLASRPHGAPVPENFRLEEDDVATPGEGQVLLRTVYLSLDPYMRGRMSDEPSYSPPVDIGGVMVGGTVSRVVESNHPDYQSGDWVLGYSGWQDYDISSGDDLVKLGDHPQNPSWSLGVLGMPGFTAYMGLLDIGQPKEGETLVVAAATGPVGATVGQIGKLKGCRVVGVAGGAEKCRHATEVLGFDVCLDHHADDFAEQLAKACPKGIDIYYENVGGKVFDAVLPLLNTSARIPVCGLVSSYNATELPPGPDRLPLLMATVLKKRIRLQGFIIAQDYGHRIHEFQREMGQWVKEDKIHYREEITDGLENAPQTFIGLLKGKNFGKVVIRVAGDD
# UniProt P76576: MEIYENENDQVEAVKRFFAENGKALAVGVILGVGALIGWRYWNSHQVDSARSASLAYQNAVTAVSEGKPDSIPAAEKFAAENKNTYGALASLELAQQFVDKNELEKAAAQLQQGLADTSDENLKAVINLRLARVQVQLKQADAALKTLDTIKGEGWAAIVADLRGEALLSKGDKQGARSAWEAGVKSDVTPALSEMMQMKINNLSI
# UniProt P75737: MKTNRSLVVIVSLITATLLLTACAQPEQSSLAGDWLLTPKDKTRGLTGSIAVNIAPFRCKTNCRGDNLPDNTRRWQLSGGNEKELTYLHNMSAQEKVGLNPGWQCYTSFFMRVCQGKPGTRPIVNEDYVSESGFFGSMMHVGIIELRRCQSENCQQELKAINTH
# UniProt P76004: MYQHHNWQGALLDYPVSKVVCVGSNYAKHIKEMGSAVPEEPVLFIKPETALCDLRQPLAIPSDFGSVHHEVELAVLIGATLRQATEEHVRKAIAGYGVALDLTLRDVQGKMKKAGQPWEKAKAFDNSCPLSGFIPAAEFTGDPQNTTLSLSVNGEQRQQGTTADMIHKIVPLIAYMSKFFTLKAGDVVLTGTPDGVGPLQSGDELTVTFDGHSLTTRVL
# UniProt P76559: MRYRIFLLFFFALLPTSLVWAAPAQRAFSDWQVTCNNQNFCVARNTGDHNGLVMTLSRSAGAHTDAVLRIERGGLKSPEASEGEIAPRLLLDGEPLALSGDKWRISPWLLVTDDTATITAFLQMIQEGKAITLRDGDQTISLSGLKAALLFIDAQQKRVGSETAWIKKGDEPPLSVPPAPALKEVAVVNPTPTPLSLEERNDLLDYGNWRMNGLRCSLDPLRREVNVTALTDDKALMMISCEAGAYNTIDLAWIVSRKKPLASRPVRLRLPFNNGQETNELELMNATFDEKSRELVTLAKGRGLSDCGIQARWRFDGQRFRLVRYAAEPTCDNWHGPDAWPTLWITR
# UniProt P76555: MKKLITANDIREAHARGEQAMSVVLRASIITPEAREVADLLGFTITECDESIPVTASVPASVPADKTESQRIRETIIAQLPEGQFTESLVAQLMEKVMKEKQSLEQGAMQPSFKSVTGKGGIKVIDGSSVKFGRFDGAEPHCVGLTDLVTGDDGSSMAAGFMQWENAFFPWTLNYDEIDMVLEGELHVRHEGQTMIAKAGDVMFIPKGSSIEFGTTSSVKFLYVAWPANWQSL
# UniProt P76208: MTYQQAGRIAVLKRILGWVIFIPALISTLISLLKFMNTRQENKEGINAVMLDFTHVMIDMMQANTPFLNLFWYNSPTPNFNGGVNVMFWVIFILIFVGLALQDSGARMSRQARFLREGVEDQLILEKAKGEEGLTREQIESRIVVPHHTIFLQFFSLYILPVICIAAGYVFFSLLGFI
# This is a selection; strong and weak results do not stand in their true shares. Small differences around the control level are noise.
# Compound: Nc1ncnc2c1ncn2[C@@H]1O[C@H](COP(=O)(O)OP(=O)(O)OP(=O)(O)O)[C@@H](O)[C@H]1O [adenosine 5'-triphosphate]
# Assay: log2 fold change of tryptic peptide abundance, ligand vs vehicle (limited proteolysis) (log2 ratio); higher = more trypsin-susceptible (destabilized)
# Conditions: ligand concentration: 5 mM; sample: E. coli desalted lysate; replicate design: treated before aliquoting
# Procedure: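 HT-PELSA: desalted E. coli K-12 BW25113 lysate (with 12 mM MgCl2) incubated with 5 mM ATP (pH 7) or water for 30 min at 25 C, then a 4 min trypsin pulse at 22 C. Peptides were quantified by DIA-MS (4 replicates). Value is the peptide log2 fold change (treated/control); negative = stabilized. Scale: negative = ligand-stabilized region.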
# 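Note: lysate desalted by size exclusion to strip endogenous ATP, peptide intensities built from DIA-NN precursor signals, and peptides missing any value discarded before comparison.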
row,Target,log2 fold change
1,"UniProt P76569 (peptide sequence: ILGMNSAR, peptide start residue: 51)",0.141
2,"UniProt P75975 (peptide sequence: VGSTPGYLR, peptide start residue: 20)",-0.262
3,"UniProt P76575 (peptide sequence: KRVEFVLA, peptide start residue: 64)",0.235
4,"UniProt P77218 (peptide sequence: APASPLQGK, peptide start residue: 253)",0.481
5,"UniProt P77214 (peptide sequence: FTITPQTK, peptide start residue: 73)",0.375
6,"UniProt P75952 (peptide sequence: APTLYAEFTNK, peptide start residue: 53)",-0.363
7,"UniProt P75746 (peptide sequence: EEVFADR, peptide start residue: 157)",-0.755
8,"UniProt P75973 (peptide sequence: VYHDTMVK, peptide start residue: 74)",-0.3
9,"UniProt P76076 (peptide sequence: TDAETEKLVADINAERK, peptide start residue: 46)",-0.477
10,"UniProt P76016 (peptide sequence: EAIINAAQVTGGR, peptide start residue: 594)",-0.563
11,"UniProt P75811 (peptide sequence: LYGIHAVTHR, peptide start residue: 23)",0.165
12,"UniProt P76373 (peptide sequence: QQADVIISNR, peptide start residue: 358)",-0.0561
13,"UniProt P75989 (peptide sequence: WISNGVPVGK, peptide start residue: 56)",0.156
14,"UniProt P77212 (peptide sequence: TLVHDAQQHTDFVR, peptide start residue: 53)",-0.957
15,"UniProt P76062 (peptide sequence: AYIAAMEMK, peptide start residue: 128)",0.353
16,"UniProt P76172 (peptide sequence: IQSDISQR, peptide start residue: 29)",-0.0374
17,"UniProt P76104 (peptide sequence: ELNLDQIR, peptide start residue: 143)",0.482
18,"UniProt P76339 (peptide sequence: ADKNNVLVK, peptide start residue: 298)",-0.421
19,"UniProt P76114 (peptide sequence: QLDEINR, peptide start residue: 81)",0.391
20,"UniProt P76117 (peptide sequence: WAPDAPEQLKK, peptide start residue: 117)",0.613

# Retrieved one by one from above, 3 records:
row,Target,log2 fold change
3,"UniProt P76575 (peptide sequence: KRVEFVLA, peptide start residue: 64)",0.235
20,"UniProt P76117 (peptide sequence: WAPDAPEQLKK, peptide start residue: 117)",0.613
6,"UniProt P75952 (peptide sequence: APTLYAEFTNK, peptide start residue: 53)",-0.363

# Continuation:

row,Target,log2 fold change
1,"UniProt P76394 (peptide sequence: EEADELR, peptide start residue: 142)",0.291
2,"UniProt P76573 (peptide sequence: LALAKEEAR, peptide start residue: 115)",-0.81
3,"UniProt P76052 (peptide sequence: GIAAHAANSPHLGR, peptide start residue: 195)",0.911
4,"UniProt P76182 (peptide sequence: IASSPYTHNQR, peptide start residue: 5)",-0.29
5,"UniProt P75793 (peptide sequence: CYGMFTDEQK, peptide start residue: 136)",-0.755
6,"UniProt P76041 (peptide sequence: ELNDEATLR, peptide start residue: 458)",-0.271
7,"UniProt P75797 (peptide sequence: LDSITWRPVADNNTR, peptide start residue: 215)",0.529
8,"UniProt P76578 (peptide sequence: AASSENASSAK, peptide start residue: 39)",-0.5
9,"UniProt P76389 (peptide sequence: HDIEHIDLNAPEEEIR, peptide start residue: 310)",-0.174
10,"UniProt P76112 (peptide sequence: IAWFEAR, peptide start residue: 40)",-0.48
11,"UniProt P76231 (peptide sequence: HNIEAQHMTIDTNGQMVMK, peptide start residue: 52)",-0.421
12,"UniProt P76113 (peptide sequence: VVGVAGGAEK, peptide start residue: 177)",-0.136
13,"UniProt P76576 (peptide sequence: YWNSHQVDSAR, peptide start residue: 41)",0.865
14,"UniProt P75972 (peptide sequence: LFEDTAEQTK, peptide start residue: 10)",-0.111
15,"UniProt P75737 (peptide sequence: RCQSENCQQELK, peptide start residue: 148)",0.583
16,"UniProt P76004 (peptide sequence: KAGQPWEK, peptide start residue: 113)",-0.127
17,"UniProt P76559 (peptide sequence: GLSDCGIQAR, peptide start residue: 303)",0.475
18,"UniProt P76555 (peptide sequence: HEGQTMIAK, peptide start residue: 190)",-0.605
19,"UniProt P76208 (peptide sequence: FLREGVEDQLILEK, peptide start residue: 114)",0.201
20,"UniProt P75694 (peptide sequence: IHGTANIYKKK, peptide start residue: 81)",0.151
